# Screening data

Source: PubChem BioAssay AID1053133 (Broad Institute, 2014).

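Vaccinia-infected cells with a two-color viral stage reporter; Venus fluorescence read on a plate reader; the cell line is not named here; timing not stated here.
The test concentration is not given here.
Percent change in Venus reporter signal; lower (more negative) values mean stronger inhibition of that viral stage.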

Values are in %.
How 0% and 100% were set is not given here.
Common to all entries: measured here: Venus reporter, other viral stage.
Part of the compounds only, not a random draw; the main read-out is not listed here.

{"compound": "C[C@H]1CN([C@@H](C)CO)C(=O)Cc2cc(NC(=O)Nc3ccc4c(c3)OCO4)ccc2O[C@H]1CN(C)Cc1ccccc1", "activity change (Venus) (%)": "-38.7"}
{"compound": "C[C@H]1CCCCO[C@@H](CN(C)Cc2ccccc2)[C@@H](C)CN([C@@H](C)CO)C(=O)c2cc(NS(=O)(=O)c3ccc(F)cc3)ccc2O1", "activity change (Venus) (%)": "-44.01"}
{"compound": "O=C(Cc1ccccc1)N1CCCCN2[C@H](CO)[C@H](c3ccc(C#Cc4ccccc4)cc3)[C@H]2C1", "activity change (Venus) (%)": "-35.15"}
{"compound": "COc1ccc([Si](C)(C)[C@H]2[C@H](CCO)O[C@@]3(C(=O)N(c4ccccc4)c4ccccc43)[C@@H]2C)cc1", "activity change (Venus) (%)": "-55.78"}
{"compound": "C[C@H](CO)N1C[C@H](C)[C@@H](CN(C)C(=O)C2CCCCC2)Oc2cc(C#Cc3ccncc3)ccc2S1(=O)=O", "activity change (Venus) (%)": "-31.9"}
{"compound": "C[C@H](CO)N1C[C@H](C)[C@H](CN(C)Cc2ccccc2)OCCCC[C@H](C)Oc2ccc(NC(=O)Nc3ccc(C(F)(F)F)cc3)cc2C1=O", "activity change (Venus) (%)": "-35.05"}
{"compound": "C[C@@H]1CN([C@@H](C)CO)C(=O)c2cccc(NC(=O)c3cnccn3)c2O[C@@H]1CN(C)Cc1ccc(C(=O)Nc2ccccc2N)cc1", "activity change (Venus) (%)": "-31.57"}
{"compound": "COc1ccc(S(=O)(=O)Nc2ccc3c(c2)C(=O)N([C@H](C)CO)C[C@@H](C)[C@@H](CN(C)Cc2ccc4c(c2)OCO4)OCCCC[C@H](C)O3)cc1", "activity change (Venus) (%)": "-78.64"}
{"compound": "CN1C(=O)c2cc(NC(=O)c3cccc(F)c3)ccc2OC[C@H]2O[C@@H](CC(=O)NCC3CCCCC3)CC[C@@H]21", "activity change (Venus) (%)": "-29.07"}
{"compound": "OC[C@@H]1[C@H](c2ccc(C#CC3CC3)cc2)[C@H]2CN(CCC(F)(F)F)CCCCN12", "activity change (Venus) (%)": "-33.35"}
{"compound": "C[C@@H]1CN([C@H](C)CO)C(=O)c2cc(NC(=O)Nc3ccc(F)cc3)ccc2O[C@@H](C)CCCCO[C@@H]1CN(C)Cc1ccc2c(c1)OCO2", "activity change (Venus) (%)": "-46.61"}
{"compound": "COc1ccc(OC(=O)N(C)C[C@H]2OCc3ccccc3-c3c(n(C)c4ccccc34)C(=O)N([C@H](C)CO)C[C@H]2C)cc1", "activity change (Venus) (%)": "-46.77"}
{"compound": "COc1ccc2c3c([nH]c2c1)[C@H](CO)N(C(=O)Nc1ccc(F)cc1)CC31CN(Cc2cc(F)ccc2F)C1", "activity change (Venus) (%)": "-33.78"}
{"compound": "Cc1ccccc1-c1ccc2c(c1)O[C@@H](CN(C)C(=O)Nc1ccc(F)cc1)[C@@H](C)CN([C@H](C)CO)S2(=O)=O", "activity change (Venus) (%)": "-48.12"}
{"compound": "O=C(Nc1cccc(F)c1)N1CC(=O)N2[C@H](CO)[C@H](c3ccc(-c4ccc(F)cc4)cc3)[C@H]2C1", "activity change (Venus) (%)": "-35.72"}
{"compound": "CC(C)(C)S(=O)N1Cc2cc(C(=O)NCCCN3CCOCC3)nc(-c3cccc(-c4cccc(F)c4)c3)c2[C@@H]1CCO", "stereo": "some centres not stated", "activity change (Venus) (%)": "-10.95"}
{"compound": "COc1ccc(S(=O)(=O)N2CCC3(CC2)CN(C(=O)c2cccnc2)[C@H](CO)c2c3c3ccc(OC)cc3n2C)cc1", "activity change (Venus) (%)": "-41.11"}
{"compound": "C[C@H](CO)N1C[C@H](C)[C@@H](CN(C)Cc2ccc(-c3ccccc3)cc2)Oc2ccc(NC(=O)CCCN(C)C)cc2CC1=O", "activity change (Venus) (%)": "-49.84"}
{"compound": "CCCC#Cc1ccc2c(c1)O[C@H](CN(C)C(=O)Nc1ccccc1F)[C@@H](C)CN([C@@H](C)CO)S2(=O)=O", "activity change (Venus) (%)": "-33.38"}
{"compound": "CCCC#Cc1ccc([C@@H]2[C@@H](CO)N3CCCCN(C(=O)NC4CCCC4)C[C@@H]23)cc1", "activity change (Venus) (%)": "-27.26"}
{"compound": "COc1ccc(S(=O)(=O)Nc2ccc3c(c2)C(=O)N([C@H](C)CO)C[C@@H](C)[C@H](CN(C)S(=O)(=O)c2ccccc2)OCCCC[C@@H](C)O3)cc1", "activity change (Venus) (%)": "-50.61"}
{"compound": "C[C@H](CO)N1C[C@H](C)[C@@H](CN(C)Cc2ccncc2)Oc2ccc(NC(=O)Nc3ccc(C(F)(F)F)cc3)cc2CC1=O", "activity change (Venus) (%)": "-52.24"}

Once more, the final 2:

COc1ccc(S(=O)(=O)Nc2ccc3c(c2)C(=O)N([C@H](C)CO)C[C@@H](C)[C@H](CN(C)S(=O)(=O)c2ccccc2)OCCCC[C@@H](C)O3)cc1 read activity change (Venus) -50.61%.
C[C@H](CO)N1C[C@H](C)[C@@H](CN(C)Cc2ccncc2)Oc2ccc(NC(=O)Nc3ccc(C(F)(F)F)cc3)cc2CC1=O read activity change (Venus) -52.24%.